From the supplement of paper PMC6078165

System: MDAMB436
Test: relative JC-1 red fluorescence (viability) vs pre-drug, coculture with fibroblast (fraction); higher = more viable cancer cells
Description: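 JC-1 labelled TNBC cells cocultured 1:1 (1,500 cells each) with CellTrace Violet stained primary or stromal fibroblasts in 384-well plates in FluoroBrite medium, treated with one of 42 anticancer drugs at 0.1, 1, 10 or 100 uM. JC-1 red fluorescence (mitochondrial integrity in cancer cells only) was read by plate reader every 8 h for 72 h. Values are normalised to each well's pre-drug value. The stock of one drug was tenfold lower, so its dose labels may be too high.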

CS(=O)(=O)CCNCc1ccc(-c2ccc3ncnc(Nc4ccc(OCc5cccc(F)c5)c(Cl)c4)c3c2)o1 [Lapatinib]
relative JC-1 red fluorescence
Conditions	8 h	16 h	24 h	32 h	40 h	48 h	56 h	64 h	72 h
0.1 µM, coculture fibroblast: C12385	0.824	0.75	0.701	0.636	0.585	0.56	0.543	0.526	0.518
0.1 µM, coculture fibroblast: H6013	0.8071	0.719	0.6669	0.6448	0.6224	0.627	0.6	0.58	0.54
0.1 µM, coculture fibroblast: H6019	0.746	0.643	0.6168	0.545	0.495	0.472	0.43	0.399	0.372
0.1 µM, coculture fibroblast: H6076	0.762	0.651	0.626	0.586	0.582	0.558	0.563	0.563	0.559
0.1 µM, coculture fibroblast: H6231	0.764	0.677	0.651	0.5805	0.5597	0.528	0.511	0.479	0.451
0.1 µM, coculture fibroblast: HADF	0.813	0.731	0.668	0.625	0.594	0.6	0.541	0.524	0.481
0.1 µM, coculture fibroblast: HCFa	0.786	0.71	0.662	0.637	0.612	0.621	0.561	0.5451	0.4861
0.1 µM, coculture fibroblast: HCPF	0.844	0.759	0.749	0.709	0.703	0.674	0.66	0.64	0.62
0.1 µM, coculture fibroblast: HHSteC	0.865	0.792	0.76	0.738	0.727	0.743	0.678	0.655	0.589
0.1 µM, coculture fibroblast: HMF	0.835	0.736	0.684	0.64	0.615	0.58	0.561	0.537	0.525
0.1 µM, coculture fibroblast: HPFa	0.873	0.807	0.764	0.711	0.684	0.691	0.611	0.57	0.496
0.1 µM, coculture fibroblast: HUF	0.854	0.744	0.711	0.637	0.575	0.548	0.522	0.506	0.489
0.1 µM, coculture fibroblast: Hs5	0.8324	0.743	0.698	0.637	0.608	0.567	0.553	0.517	0.498
0.1 µM, coculture fibroblast: Hs27A	0.826	0.759	0.699	0.681	0.647	0.675	0.582	0.557	0.49
0.1 µM, coculture fibroblast: Hs343T	0.771	0.678	0.639	0.602	0.571	0.542	0.522	0.509	0.499
0.1 µM, coculture fibroblast: WS1	0.81	0.728	0.6814	0.597	0.5475	0.5238	0.4969	0.466	0.447
1 µM, coculture fibroblast: C12385	0.826	0.776	0.746	0.669	0.633	0.605	0.58	0.561	0.548
1 µM, coculture fibroblast: H6013	0.854	0.836	0.82	0.811	0.807	0.824	0.788	0.769	0.719
1 µM, coculture fibroblast: H6019	0.806	0.809	0.828	0.77	0.752	0.752	0.728	0.709	0.682
1 µM, coculture fibroblast: H6076	0.788	0.762	0.78	0.758	0.733	0.717	0.733	0.727	0.72
1 µM, coculture fibroblast: H6231	0.782	0.681	0.742	0.6539	0.6323	0.604	0.595	0.58	0.558
1 µM, coculture fibroblast: HADF	0.8384	0.8437	0.817	0.78	0.7748	0.8005	0.734	0.7314	0.6753
1 µM, coculture fibroblast: HCFa	0.853	0.836	0.817	0.782	0.763	0.777	0.713	0.69	0.629
1 µM, coculture fibroblast: HCPF	0.825	0.774	0.772	0.712	0.677	0.638	0.607	0.584	0.549
1 µM, coculture fibroblast: HHSteC	0.859	0.852	0.825	0.779	0.77	0.774	0.698	0.673	0.61
1 µM, coculture fibroblast: HMF	0.868	0.8063	0.77773	0.7199	0.6899	0.6472	0.6323	0.603	0.573
1 µM, coculture fibroblast: HPFa	0.9423	0.8956	0.878	0.841	0.828	0.827	0.75	0.712	0.645
1 µM, coculture fibroblast: HUF	0.912	0.8313	0.807	0.737	0.675	0.643	0.614	0.592	0.577
1 µM, coculture fibroblast: Hs5	0.793	0.74	0.736	0.689	0.673	0.625	0.627	0.6	0.581
1 µM, coculture fibroblast: Hs27A	0.8905	0.849	0.864	0.844	0.826	0.878	0.798	0.793	0.725
1 µM, coculture fibroblast: Hs343T	0.831	0.745	0.734	0.697	0.6626	0.6304	0.6095	0.582	0.562
1 µM, coculture fibroblast: WS1	0.815	0.762	0.742	0.67	0.633	0.618	0.597	0.572	0.555
10 µM, coculture fibroblast: C12385	0.851	0.795	0.803	0.791	0.809	0.827	0.827	0.836	0.844
10 µM, coculture fibroblast: H6013	0.8232	0.78	0.804	0.856	0.853	0.875	0.892	0.904	0.913
10 µM, coculture fibroblast: H6019	0.852	0.87	0.905	0.915	0.939	0.891	0.942	0.914	0.883
10 µM, coculture fibroblast: H6076	0.8482	0.74827	0.7	0.689	0.694	0.709	0.722	0.733	0.716
10 µM, coculture fibroblast: H6231	0.844	0.758	0.7364	0.698	0.672	0.657	0.633	0.605	0.583
10 µM, coculture fibroblast: HADF	0.8083	0.779	0.792	0.821	0.834	0.859	0.854	0.86	0.865
10 µM, coculture fibroblast: HCFa	0.855	0.826	0.84	0.867	0.89	0.877	0.759	0.788	0.848
10 µM, coculture fibroblast: HCPF	0.877	0.806	0.774	0.754	0.755	0.759	0.761	0.765	0.779
10 µM, coculture fibroblast: HHSteC	0.815	0.838	0.887	0.808	0.877	0.807	0.904	0.803	0.901
10 µM, coculture fibroblast: HMF	0.919	0.851	0.791	0.775	0.761	0.759	0.747	0.746	0.742
10 µM, coculture fibroblast: HPFa	0.887	0.8804	0.9032	0.9294	0.97	0.98	0.977	0.843	0.949
10 µM, coculture fibroblast: HUF	0.893	0.821	0.818	0.8	0.807	0.81	0.813	0.83	0.829
10 µM, coculture fibroblast: Hs5	0.932	0.8845	0.893	0.884	0.892	0.9006	0.924	0.9272	0.9587
10 µM, coculture fibroblast: Hs27A	0.789	0.749	0.736	0.765	0.751	0.804	0.765	0.765	0.749
10 µM, coculture fibroblast: Hs343T	0.873	0.783	0.735	0.711	0.7	0.704	0.693	0.712	0.723
10 µM, coculture fibroblast: WS1	0.835	0.762	0.769	0.749	0.745	0.761	0.758	0.757	0.757
100 µM, coculture fibroblast: C12385	0.872	0.836	0.77204	0.721	0.688	0.738	0.662	0.709	0.65
100 µM, coculture fibroblast: H6013	0.9056	0.848	0.841	0.831	0.836	0.859	0.8377	0.818	0.77
100 µM, coculture fibroblast: H6019	0.801	0.778	0.757	0.693	0.6638	0.6452	0.603	0.571	0.537
100 µM, coculture fibroblast: H6076	0.973	0.904	0.873	0.832	0.773	0.727	0.7	0.665	0.642
100 µM, coculture fibroblast: H6231	0.827	0.859	0.774	0.881	0.816	0.85	0.836	0.809	0.832
100 µM, coculture fibroblast: HADF	0.877	0.855	0.85	0.829	0.825	0.843	0.781	0.774	0.719
100 µM, coculture fibroblast: HCFa	0.90724	0.912	0.81	0.798	0.708	0.755	0.66	0.726	0.704
100 µM, coculture fibroblast: HCPF	0.9328	0.8888	0.876	0.8481	0.766	0.847	0.793	0.863	0.8307
100 µM, coculture fibroblast: HHSteC	0.845	0.837	0.827	0.79	0.78	0.787	0.731	0.702	0.644
100 µM, coculture fibroblast: HMF	0.856	0.781	0.859	0.828	0.793	0.7063	0.721	0.773	0.738
100 µM, coculture fibroblast: HPFa	0.926	0.874	0.855	0.794	0.782	0.781	0.694	0.66	0.579
100 µM, coculture fibroblast: HUF	0.887	0.808	0.806	0.736	0.683	0.653	0.628	0.609	0.603
100 µM, coculture fibroblast: Hs5	0.874	0.786	0.764	0.715	0.691	0.662	0.645	0.64	0.619
100 µM, coculture fibroblast: Hs27A	0.8919	0.8069	0.801	0.7649	0.723	0.765	0.67	0.65	0.575
100 µM, coculture fibroblast: Hs343T	0.884	0.911	0.888	0.872	0.849	0.829	0.807	0.797	0.803
100 µM, coculture fibroblast: WS1	0.812	0.755	0.7453	0.6717	0.62177	0.5921	0.5755	0.541	0.5192

Values are relative to the signal before dosing, not to a vehicle control; the signal also falls without drug.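 Labels refer to human fibroblasts, largely primary: uterine (C12385, HUF), lung (H6013), bone (Hs27A), adrenal (HADF), skin (WS1), plus mammary HMF and breast cancer-associated Hs343T. Cancer lines are basal-like or mesenchymal-like triple-negative breast cancer. The paper counts as hits responses shifting over 3x the replicate standard deviation. The tissue of the other fibroblasts is not given here.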
